Paper doi:10.1101/796524
These are yes or no findings as the source states them, for the method shown. Binding seen in cells or lysates may run through a third protein. Binding calls can cover weak binding; strength is not graded here.

What was measured:
[1] = target: XPF(323-326Δ)-ERCC1 (Fanconi anaemia mutant heterodimer) (human); assay: co-purification
[2] = target: XPF-ERCC1 endonuclease (wild type heterodimer) (human); assay: co-purification

B1: SLX4 NTD (residues 1-758) (domain or fragment, UniProt Q8IY92-1 1-758)
chain: MKLSVNEAQLGFYLGSLSHLSACPGIDPRSSEDQPESLKTGQMMDESDEDFKELCASFFQRVKKHGIKEVSGERKTQKAASNGTQIRSKLKRTKQTATKTKTLQGPAEKKPPSGSQAPRTKKQRVTKWQASEPAHSVNGEGGVLASAPDPPVLRETAQNTQTGNQQEPSPNLSREKTRENVPNSDSQPPPSCLTTAVPSPSKPRTAQLVLQRMQQFKRADPERLRHASEECSLEAAREENVPKDPQEEMMAGNVYGLGPPAPESDAAVALTLQQEFARVGASAHDDSLEEKGLFFCQICQKNLSAMNVTRREQHVNRCLDEAEKTLRPSVPQIPECPICGKPFLTLKSRTSHLKQCAVKMEVGPQLLLQAVRLQTAQPEGSSSPPMFSFSDHSRGLKRRGPTSKKEPRKRRKVDEAPSEDLLVAMALSRSEMEPGAAVPALRLESAFSERIRPEAENKSRKKKPPVSPPLLLVQDSETTGRQIEDRVALLLSEEVELSSTPPLPASRILKEGWERAGQCPPPPERKQSFLWEGSALTGAWAMEDFYTARLVPPLVPQRPAQGLMQEPVPPLVPPEHSELSERRSPALHGTPTAGCGSRGPSPSASQREHQALQDLVDLAREGLSASPWPGSGGLAGSEGTAGLDVVPGGLPLTGFVVPSQDKHPDRGGRTLLSLGLLVADFGAMVNNPHLSDVQFQTDSGEVLYAHKFVLYARCPLLIQYVNNEGFSAVEDGVLTQRVLLGDVSTEAARTFLHYLYTA
**Q.** Which results are given for B1?
**A.** binding [1]: binds; binding [2]: binds
